Reference: paper PMC10163288
The list shows a part of the results.

B1: il2ra_site1_1z92_normal_mot_678a1b28e3afbd0e6d42a78f97d9d1d3_0001_000000285_0001_16_30_H_._35e8c6ce0f15a03652163f0e02ca9f08_0001_0001_0000200022_0000001_0_af2pr … (protein)
chain: SEEDLEEAAEELGVPPEELQALKRAFKVAAESGTPPEQVLRVLARIARRENDPELLLVVELVLRK
B2: il2ra_site1_2b5i_normal_mot_f5ff40796168375b462bec8614a1db4a_0001_1_000000138_0001_53_65_H_._HHH_b1_08246_af2_0001_0000700010_0000001_0_af2pred_dldesign_0_af2pr … (protein)
chain: SSSSSGLREKVLELLEEAEKLKEEGKLEEAKKLLLLARRLARKGKDEELIAEIEKRLKELSSSSS
B3: il2ra_site1_1z92_normal_mot_54e474eed2d0515e81978198f0f96ec2_0001_000000202_0001_15_30_H_._HHH_b2_05542_af2_0001_0000400025_0000001_0_af2pred_0001_af2pred_1 (protein)
chain: SSSSSSDEEIEEIVRELVEEFNLSEETEKLLQRLAELALKRGISERAIEWALRRLAKRLSSSSSS
B4: il2ra_site1_2b5i_sap_7_mot_HHH_b1_01240_af2_000000288_0001_42_55_H_._HHH_b2_06808_0001_0000300022_0000001_0_0001_af2pred_dldesign_0_af2pred (protein)
chain: SPELYALADKLFDDDDKEKKRVAVKAHYLLERDPSLEPEVLELLRQLEAGELSPEEVDRRLSRLL
B5: il2ra_site1_1z92_sap_15_mot_HHH_b2_04857_af2_000000020_0001_39_57_H_._HHH_b1_04489_af2_0001_0000100006_0000001_0_0001_af2pred_0001_af2pred (protein)
chain: SIIEEDLREAVEKNDEELLREFIRLLLEDSGNPELVKKLLRILVRRLGLPPEVLERLQELLEELT
B6: il2ra_site2_2erj_normal_mot_HHH_b2_08081_000000268_0001_43_57_H_._HHH_b1_01890_0001_0000700036_0000001_0 (protein)
chain: SSSSDAWEIAARLILEAIELFKNGNPEEARRVIEEAEEEIERLGDETALRYLELALRRLEASSSS
B7: il2ra_site1_2b5i_sap_20_mot_3191cc6481096e02f17c0295a435efb4_0001_af2_000000240_0001_16_31_H_._8cb69178cb18ca82f70eade9eeca9cee_0001_0001_0000200025_0000001_0_0 … (protein)
chain: SSSSVEKLKEAIELFKEADKAKQAGKEEEAKELLEKALELAKAAGAASLARIIESALKDLESSSS
B8: il2ra_site1_1z92_sap_17_mot_9410bc1eedee1757c7b766bec531e3ee_0001_1_000000285_0001_16_30_H_._HEEHE_2503_0001_0000200009_0000001_1_0001_af2pred_0001_af2pred_1_sw … (protein)
chain: TEVEETLREAVEKNDEEELRKFIELLLRDAGDPRLVKALLRILVKRLGLPPEVLERLQELLEELT
B9: il2ra_site1_2b5i_normal_mot_HHH_b2_01040_af2_000000143_0001_42_56_H_._HHH_b1_04969_af2_0002_0000100009_0000001_0 (protein)
chain: SSSSSDEAEEAAREALELLRELLRVDEEEIKELLEEAHEKLEKLNDEALLKRVERLLRLLSSSSS
B10: il2ra_site1_3nfp_sap_31_mot_66bb1f637706d7249e1dd387c51866da_0001_1_000000122_0001_1_12_H_._17594f0aad44365367344f8cc037fc3f_0001_af2_0001_0000500022_0000001_0_ … (protein)
chain: TNLFLRELEEAKKEGTLEELLEEMIEMLKREFKFPPEEAAWLLARDAERLGDPEAAELVEELLRR
B11: il2ra_site1_1z92_sap_12_mot_HHH_b2_00249_af2_000000052_0001_39_52_H_._HHH_b2_07800_0001_0000300015_0000001_0_0001_af2pred_0001_af2pred (protein)
chain: SSSSSSEELEEFVEELVKKYGLSESAKRALERLAREALEQGADEELIKRDLHRAAEFLASSSSSS
B12: il2ra_site2_2erj_normal_mot_91f4e0b9ef636147e55e10354d5068a9_0001_000000168_0001_33_48_H_._HEEHE_1756_af2_0001_0000200003_0000001_0_1_af2pred_0001_af2pred (protein)
chain: DEEELVQRLLEEAAKLAGVPQVTVELNNGEFEITINGDDRQAELLERMAEWLLKEKGIPVRVEVE
B13: il2ra_site1_2b5i_normal_mot_HHH_b1_06520_000000001_0001_1_19_H_._HHH_eva_0123_af2_0001_0000100004_0000001_0_af2pred_0001_af2pred (protein)
chain: SSSDEELFEEANKVFKALARGKITEEWEEIVEELIKIAEELGDERLAEDLEHLLRIIQELLKSSS
B14: il2ra_site2_2erj_sap_21_mot_39ed66e5fba071e4f274ea7f2cf018e6_0001_000000286_0001_17_31_H_._HHH_b1_00857_0001_0000200006_0000001_0_0001_af2pred_0001_af2pred (protein)
chain: SSSSEEREKAKELAARALQLRERGNPEEAEELLREAEEIAREGGDEELLQLIQAALRLIELSSSS
B15: il2ra_site2_2erj_sap_15_mot_HHH_b1_05025_af2_000000233_0001_1_21_H_._HHH_b1_03724_0001_0000300012_0000001_1_0001 (protein)
chain: SSSSDLVEEAARVLLEYLRSHGDPELLRELEELLRELEKEGDPELRRELARLINEIMQKAMSSSS
B16: il2ra_site1_3nfp_normal_mot_ed4c3c7086c1f51adfb21ecdea7692dd_0001_1_af2_000000028_0001_36_50_H_._c99de99df9ecc9fdd090aa5ad7eabf9c_0001_0001_0000100003_0000001_0 … (protein)
chain: DAAKILIEAAVKRNNPRTVERFLEELEKHLRLGNPDAEEAIRLLLELLEELGNEELLRLVEEVLK
B17: il2ra_site1_2b5i_normal_mot_HHH_b2_04910_000000118_0001_1_19_H_._HHH_b2_07005_af2_0001_0000500025_0000001_0_af2pred_0001_af2pred_1 (protein)
chain: SSSSSEITEEVYRLFKEANELLRNGNPEEAKEVLERALELAEELGSPLFERTIKVALEQVGSSSS
B18: il2ra_site2_2erj_normal_mot_HHH_b1_00839_000000020_0001_43_57_H_._HHH_b2_02614_0001_0000200002_0000001_0 (protein)
chain: SSSSSEEQEESARLALELSELALKGDEEKFEEVLEEAKQFAEERNDEFLLRFIRFLERYLSSSSS
B19: il2ra_site1_2b5i_normal_mot_HHH_b1_03543_af2_000000000_0001_42_54_H_._HHH_b2_04113_af2_0001_0000200008_0000001_0_af2pred_dldesign_0_af2pred (protein)
chain: SSSSSKYEELDRLANEAFRLARRGDLERFREVAERAIALAEELGDEKIAAELRFLEELARSSSSS

Biological target: il2ra, P01589
Experiment: yeast display titration

Apparent Kd, inactive:
B1 no binding seen, B2 no binding seen, B3 no binding seen, B4 no binding seen, B5 no binding seen, B6 no binding seen, B7 no binding seen, B8 no binding seen, B9 no binding seen, B10 no binding seen, B11 no binding seen, B12 no binding seen, B13 no binding seen, B14 no binding seen, B15 > 1500 nM, B16 no binding seen, B17 no binding seen, B18 no binding seen, B19 no binding seen
